Source: patent US6077680A (The University of Florida, dated 2000)

Experiment: general procedure: Fmoc solid-phase peptide synthesis; Fmoc-Cys(Trt)-Wang resin; 2-chlorotrityl resin for truncated analogs; dicyclohexylcarbodiimide with 2 equiv. 1-hydroxybenzotriazole
Conditions: oxidative folding step, several disulfide bridges, sequence written open

Row | Sequence | outcome | difficulty met
1 | RSCIDTIPKSRCTAFQCKASMKYRLSFCRKTCGTC | Repeated folding attempts with H19A, including addition of glutathione, failed to yield a major product | –
2 | RSCIDTIPKSRCTAPQCKHSMKYRLSFCRATCGTC | – | Lys30 to Ala (K30A) failed to yield a major product after 36 to 72 h

Where a sequence shows no end group, the ends are not given.
